In patent publication US20180265554A1:
These are yes or no findings as the source states them, for the method shown. Some results given as binding are weak or reduced against the parent protein; the word gives no strength. Sequences can lack the tags named with a protein.

Protein sequences, listed by entry. Tags and fused reporters are not part of them.
UniProt O60603: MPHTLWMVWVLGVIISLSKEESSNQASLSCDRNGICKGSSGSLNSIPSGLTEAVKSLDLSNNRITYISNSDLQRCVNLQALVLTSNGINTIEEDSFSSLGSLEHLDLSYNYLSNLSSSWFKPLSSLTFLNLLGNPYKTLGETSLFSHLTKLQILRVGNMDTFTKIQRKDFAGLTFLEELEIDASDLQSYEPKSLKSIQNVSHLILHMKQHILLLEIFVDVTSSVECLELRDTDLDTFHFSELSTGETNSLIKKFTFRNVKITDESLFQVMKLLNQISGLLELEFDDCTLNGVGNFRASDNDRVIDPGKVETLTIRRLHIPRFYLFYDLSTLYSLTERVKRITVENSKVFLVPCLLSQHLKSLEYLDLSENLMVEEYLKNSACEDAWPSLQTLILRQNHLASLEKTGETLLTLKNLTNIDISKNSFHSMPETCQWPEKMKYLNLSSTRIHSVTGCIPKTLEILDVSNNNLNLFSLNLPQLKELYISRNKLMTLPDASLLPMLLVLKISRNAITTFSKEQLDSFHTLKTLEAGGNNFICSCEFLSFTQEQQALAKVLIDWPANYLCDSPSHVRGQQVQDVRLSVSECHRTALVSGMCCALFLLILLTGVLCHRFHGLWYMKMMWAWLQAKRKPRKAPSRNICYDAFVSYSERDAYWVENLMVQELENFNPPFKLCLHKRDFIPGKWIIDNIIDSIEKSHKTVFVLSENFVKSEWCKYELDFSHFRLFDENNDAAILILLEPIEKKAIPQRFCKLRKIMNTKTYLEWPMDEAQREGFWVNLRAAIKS

Molecular target: toll-like receptor 2 (hTLR2) on reporter cell line (Invivogen) (human (printed as hTLR2)) (UniProt O60603)
Assay: hTLR2 reporter cell line, NF-κB/AP-1-driven SEAP read-out; no direct binding assay

binding: binds
B1: Amuc-1100 polypeptide (mature, recombinant from E. coli, N-terminal Met added, C-terminal His-Tag) (ligand, not shown: small tags and cut ends)
chain: MIVNSKRSELDKKISIAAKEIKSANAAEITPSRSSNEELEKELNRYAKAVGSLETAYKPFLASSALVPTTPTAFQNELKTFRDSLISSCKKKNILITDTSSWLGFQVYSTQAPSVQAASTLGFELKAINSLVNKLAECGLSKFIKVYRPQLPIETPANNPEESDEADQAPWTPMPLEIAFQGDRESVLKAMNAITGMQDYLFTVNSIRIRNERMMPPPIANPAAAKPAAAQPATGAASLTPADEAAAPAAPAIQQVIKPYMGKEQVFVQVSLNLVHFNQPKAQEPSE
